PubChem BioAssay AID493246 | Drosophila RNAi Screening Center – 2011
The screen tested about 21,000 reagents; below is a random part of those that have a named target and a result. Over the whole deposit, 429 (2%) are marked active. 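Values are raw and not normalised between plates; calls rest on per-plate z-scores that were not deposited.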 A number with no mark means an inactive call. Names joined by + are all predicted targets of the reagent. Not given: the amount of reagent, the time to read-out.

Assay: 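Identify essential fly genes by loss of cell viability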 (primary screen)
System: Drosophila Kc and S2R+ cells
Knock-down reagent: long dsRNA against Drosophila genes
Read-out: 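Raw, unnormalised count of remaining cells in each well; per-plate z-scores of cell number underlie the calls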
Direction: Kc cell number and S2R+ cell number: higher = more cells remaining
Rule for the call: 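Counted as a hit if cell number falls by a z-score of at least 3 within its plate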

no.	predicted target	amplicon	Kc cell number, rep 1	Kc cell number, rep 2	S2R+ cell number, rep 1	S2R+ cell number, rep 2
1	CheB93a	DRSC15044	1.35e6	1.40e6	1.02e6	1.12e6
2	CG43322	DRSC02280	1.49e6	1.34e6	1.08e6	1.23e6
3	CG15725	DRSC19691	1.53e6	1.47e6	1.01e6	1.11e6
4	Hr83	DRSC12521	1.53e6	1.68e6	1.30e6	1.35e6
5	Cyp310a1	DRSC03301	1.31e6	1.35e6	1.19e6	1.24e6
6	Lrt	DRSC06045	1.47e6	1.39e6	9.82e5	1.22e6
7	Lpt	DRSC04291	2.06e6	2.19e6	1.48e6	1.49e6
8	Lpt	DRSC04515	1.52e6	1.68e6	1.02e6	1.04e6
9	CG11162	DRSC19391	1.63e6	1.54e6	1.16e6	1.24e6
10	SCCRO3	DRSC06359	1.50e6	1.48e6	1.17e6	1.22e6
11	Lhr	DRSC06759	1.43e6	1.46e6	1.11e6	1.12e6
12	TfIIFalpha	DRSC12608	1.76e6	1.95e6	1.36e6	1.47e6
13	Semp1	DRSC01874	1.65e6	1.69e6	1.36e6	1.46e6
14	halo	DRSC00705	1.64e6	1.66e6	1.08e6	1.26e6
15	dgrn	DRSC12154	1.87e6	1.87e6	1.29e6	1.37e6
16	Npc2b	DRSC15464	1.33e6	1.39e6	1.18e6	1.30e6
17	Rh5	DRSC03412	1.34e6	1.37e6	1.10e6	1.17e6
18	CG5346	DRSC15778	1.34e6	1.53e6	1.23e6	1.13e6
19	CG31663	DRSC00078	1.53e6	1.59e6	1.10e6	1.25e6
20	CG31663	DRSC00389	1.44e6	1.40e6	1.18e6	1.28e6
21	CG31663	DRSC00393	1.45e6	1.54e6	1.03e6	1.15e6
22	PIG-U	DRSC02193	1.23e6	1.09e6	7.61e5	7.47e5
23	EndoG	DRSC07292	1.52e6	1.62e6	1.07e6	1.22e6
24	Polr3K + Tcs1	DRSC05988	1.71e6	9.17e5	1.02e6	1.24e6
25	RPA2	DRSC03184	1.24e6	1.36e6	1.01e6	1.03e6
26	mys	DRSC18799	1.55e6	1.50e6	1.06e6	1.22e6
27	CG42747	DRSC10209	1.73e6	1.64e6	1.36e6	1.29e6
28	CG42747	DRSC10210	1.37e6	1.69e6	1.11e6	1.15e6
29	Slmap	DRSC03799	1.57e6	1.70e6	1.20e6	2.74e5
30	psq	DRSC07668	2.88e5 (active)	4.36e5	2.94e5	4.14e5
31	ase	DRSC18739	1.51e6	1.57e6	1.08e6	1.16e6
32	CG34408	DRSC17733	6.40e5		9.13e5	
33	Ras64B	DRSC08689	1.40e6	1.26e6	1.12e6	1.34e6
34	Best2	DRSC09712	1.29e6	1.40e6	1.10e6	1.17e6
35	Abcd3	DRSC19488	1.57e6	1.67e6	1.02e6	1.14e6
36	Ote	DRSC07498	1.37e6	1.44e6	1.15e6	1.21e6
37	CG14105	DRSC10107	1.24e6	1.30e6	1.23e6	1.31e6
38	Mtl	DRSC16751	1.57e6	1.54e6	1.01e6	1.18e6
39	CG10950	DRSC06020	1.47e6	1.56e6	1.14e6	1.18e6
40	RpL38	DRSC07818	1.13e6 (active)	1.14e6	5.83e5	7.19e5
41	MED15	DRSC00267	1.17e6	1.25e6	6.68e5	8.44e5
42	Muc68D	DRSC10569	1.33e6	1.40e6	1.25e6	1.20e6
43	Vtld + CG42529	DRSC10102	1.38e6	1.45e6	1.29e6	1.32e6
44	crm	DRSC18754	5.84e5		9.06e5	
45	NaCP60E	DRSC04307	1.49e6	1.47e6	1.16e6	1.18e6
46	PGRP-SB1	DRSC11090	1.43e6	1.51e6	1.27e6	1.34e6
47	CG43325	DRSC04157	1.53e6	1.61e6	1.32e6	1.30e6
48	CG17287	DRSC06659	1.72e6	1.84e6	1.38e6	1.51e6
49	Gr22e	DRSC20912	1.64e6	1.91e6	1.27e6	1.29e6
50	TFAM	DRSC15552	1.43e6	1.48e6	1.03e6	1.16e6
51	Chsy	DRSC20175	1.44e6	1.43e6	1.05e6	1.10e6
52	Chsy	DRSC20176	1.56e6	1.56e6	1.16e6	1.14e6
53	Cyp6g2	DRSC07387	1.51e6	1.59e6	1.35e6	1.42e6
54	trx	DRSC17089	1.43e6	1.52e6	9.44e5	1.01e6
55	Vdup1	DRSC08586	1.30e6	1.00e6	1.05e6	1.16e6
56	Cdk2	DRSC16921	1.42e6 (active)	1.54e6	6.22e5	7.28e5
57	Rh7	DRSC10529	1.42e6	1.48e6	9.71e5	9.84e5
58	Srg2 + CG42826	DRSC10681	1.22e6	1.29e6	1.20e6	1.06e6
59	Srg2 + CG42826	DRSC10682	1.42e6	1.82e6	1.35e6	1.38e6
60	kmg	DRSC02829	1.59e6	1.65e6	1.34e6	1.52e6
61	CG33998	DRSC05747	5.30e5		7.40e5	
62	CG13698	DRSC10047	1.59e6	1.59e6	1.23e6	1.38e6
63	CG1213	DRSC12191	1.60e6	1.89e6	1.27e6	1.39e6
64	Rpn11	DRSC03422	8.83e5 (active)	8.97e5	6.95e5	7.56e5
65	Not11	DRSC04204	1.51e6	1.53e6	1.24e6	1.40e6
66	FipoQ	DRSC15413	4.76e5		7.93e5	
67	IA-2	DRSC00304	1.40e6	1.45e6	8.64e5	9.63e5
68	IA-2	DRSC00652	1.31e6	1.33e6	6.62e5	7.97e5
69	Vha16-4 + CG15614	DRSC07321	1.49e6	1.49e6	1.14e6	1.30e6
70	rols	DRSC09873	1.27e6	1.33e6	1.08e6	1.17e6
71	rols	DRSC10254	1.37e6	1.30e6	1.23e6	1.35e6
72	rols	DRSC10536	1.29e6	1.37e6	1.24e6	1.30e6
73	Aprt	DRSC08139	1.47e6	1.28e6	9.40e5	1.11e6
74	mRpL20	DRSC09828	1.12e6	1.32e6	1.13e6	1.22e6
75	CG31467	DRSC16048	1.43e6	1.48e6	1.22e6	1.27e6
